Publication PMC10683239
Results are given in words; binding and its absence hold for the method and conditions named. Binding seen in cells or lysates may run through a third protein. Some binding calls cover weakened binding; strength is not graded here.

The chains behind the UniProt entries cited, without tags or fusion partners.
UniProt Q13426: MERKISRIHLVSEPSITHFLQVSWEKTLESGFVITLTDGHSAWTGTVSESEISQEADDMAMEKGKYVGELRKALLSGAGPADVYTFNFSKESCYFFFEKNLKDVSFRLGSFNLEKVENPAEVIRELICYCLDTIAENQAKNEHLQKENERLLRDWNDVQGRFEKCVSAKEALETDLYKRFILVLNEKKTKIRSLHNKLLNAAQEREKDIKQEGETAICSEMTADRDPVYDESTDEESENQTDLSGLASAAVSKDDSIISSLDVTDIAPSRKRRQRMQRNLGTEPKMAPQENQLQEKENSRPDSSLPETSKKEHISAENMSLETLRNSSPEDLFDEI

Target: XRCC4 (human (endogenous in Panc-1)) (UniProt Q13426)
Test: co-IP; Pierce Co-IP Kit; 10 µg anti-SAE1/anti-XRCC4 or control IgG on resin with 500 µg protein at 4 °C overnight, western blot; Panc-1 cells treated with CAF-derived EVs (CAFs with lenti-circBIRC6-shRNA or lenti-NC-shRNA; SAE1 siRNA; XRCC4 mutant plasmids)

binding: binds
B1: SAE1, an E1 SUMO-activating enzyme (enzyme, UniProt Q9UBE0 1-346)
chain: MVEKEEAGGGISEEEAAQYDRQIRLWGLEAQKRLRASRVLLVGLKGLGAEIAKNLILAGVKGLTMLDHEQVTPEDPGAQFLIRTGSVGRNRAEASLERAQNLNPMVDVKVDTEDIEKKPESFFTQFDAVCLTCCSRDVIVKVDQICHKNSIKFFTGDVFGYHGYTFANLGEHEFVEEKTKVAKVSQGVEDGPDTKRAKLDSSETTMVKKKVVFCPVKEALEVDWSSEKAKAALKRTTSDYFLLQVLLKFRTDKGRDPSSDTYEEDSELLLQIRNDVLDSLGISPDLLPEDFVRYCFSEMAPVCAVVGGILAQEIVKALSQRDPPHNNFFFFDGMKGNGIVECLGPK
